Counter-ions that a name gives are not always drawn. Some of the results follow. Single values are uncertain, as repeats are few or missing.
Tested on: M229R (matched melanoma line resistant to BRAF inhibitors)
Assay: reduction in cell viability relative to untreated/vehicle; higher = more growth inhibition
Conditions: 200 nM; 72 h

Row | SMILES | reduction in cell viability
1 | NS(=O)(=O)OC[C@@H]1C[C@@H](n2ccc3c(N[C@H]4CCc5ccccc54)ncnc32)C[C@@H]1O | 39.2%
2 | OC(CCN1CCCCC1)(c1ccccc1)C1CC2C=CC1C2 (stereo not given) [Biperiden] | < 0%
3 | OC[C@H]1O[C@@H](n2cnc3c2N=CNC[C@H]3O)C[C@@H]1O [Pentostatin] | < 0%
4 | CC1(C)O[C@@H]2C[C@H]3[C@@H]4C[C@H](F)C5=CC(=O)C=C[C@]5(C)[C@H]4[C@@H](O)C[C@]3(C)[C@]2(C(=O)CO)O1 [Flunisolide] | < 0%
5 | COc1cc2ncnc(Nc3ccc(F)c(Cl)c3)c2cc1NC(=O)/C=C/CN1CCCCC1 [Dacomitinib] | < 0%
6 | COc1ccc(F)c(F)c1C(=O)c1cnc(NC2CCN(S(C)(=O)=O)CC2)nc1N | < 0%
7 | CC(C)C[C@@H](N)[C@H](O)C(=O)N[C@H](C(=O)N[C@H](C(=O)N[C@@H](CC(=O)O)C(=O)O)C(C)C)C(C)C [Amastatin] | < 0%
8 | Nc1cc(C(F)(F)F)c(-c2cc(N3CCOCC3)nc(N3CCOCC3)n2)cn1 [BKM120 (NVP-BKM120, Buparlisib)] | 11.5%
9 | C[C@H](CCC(=O)O)[C@H]1CC[C@H]2[C@@H]3[C@H](O)C[C@@H]4C[C@H](O)CC[C@]4(C)[C@H]3CC[C@]12C [Chenodeoxycholic acid] | 2.43%
10 | CN(C)[C@@H]1C(O)=C(C(N)=O)C(=O)[C@@]2(O)C(O)=C3C(=O)c4c(O)cccc4[C@@](C)(O)[C@H]3C[C@@H]12 [Tetracycline hydrochloride] | < 0%
11 | Cc1cc(Nc2nc(N[C@@H](C)c3ccc(F)cc3)c(C#N)cc2F)n[nH]1 | 30.1%
12 | CCN(CC)CCOc1ccc(Nc2ncc3cc(-c4c(Cl)cccc4Cl)c(=O)n(C)c3n2)cc1 | 63.2%
13 | Cc1cc(C(C)(C)C)cc(C)c1CC1=NCCN1 [Xylometazoline hydrochloride] | < 0%
14 | CCn1cc(C(=O)O)c(=O)c2cc(F)c(N3CCNC(C)C3)c(F)c21 (stereo not given) [Lomefloxacin hydrochloride] | < 0%
15 | C[C@]12CCC3=C4CCC(=O)C=C4CC[C@H]3[C@@H]1CC[C@@]2(O)CC#N [Dienogest] | < 0%
16 | CN(C)CCCN1c2ccccc2CCc2ccc(Cl)cc21 [Clomipramine] | < 0%
17 | O=C(NCCCCN1CCOCC1)c1cc2ccccc2o1 | < 0%
18 | Cc1ccc(S(=O)(=O)Nc2cc(Cl)ccc2C(=O)Nc2nc(-c3ccccc3)cs2)cc1 | < 0%
19 | C[C@@H](Oc1cc(-c2cnn(C3CCNCC3)c2)cnc1N)c1c(Cl)ccc(F)c1Cl | 0.22%
20 | C/C=C(/C)C(=O)O[C@H]1C(C)=C[C@]23C(=O)[C@@H](C=C(CO)[C@@H](O)[C@]12O)[C@H]1[C@@H](C[C@H]3C)C1(C)C [Ingenol mebutate] | 30%
21 | CN(C)C(=O)C(CCN1CCC(O)(c2ccc(Cl)cc2)CC1)(c1ccccc1)c1ccccc1 [Loperamide] | < 0%
22 | O=C1c2cccc(O)c2C(=O)c2c(O)cc(CO)cc21 [Aloe-emodin] | 2.45%
23 | CC1=C(/C=C/C(C)=C/C=C/C(C)=C/C(=O)O)C(C)(C)CCC1 [Tretinoin] | < 0%
24 | CC(C)[C@H](CO)Nc1nc(Nc2cccc(Cl)c2)c2ncn(C(C)C)c2n1 [Purvalanol A] | 6.7%
25 | O=S(=O)(O)c1ccc2cc(N=Nc3cc(S(=O)(=O)O)c4cccnc4c3O)ccc2c1 | < 0%

Tested on: M238P (parental melanoma line)
Assay: as above
Conditions: 200 nM; 72 h

Row | SMILES | reduction in cell viability
26 | CC[C@H](c1ccc(O)cc1)[C@@H](CC)c1ccc(O)cc1 [Hexestrol] | < 0%
27 | CN(c1nccc(=O)[nH]1)C1CCN(c2nc3ccccc3n2Cc2ccc(F)cc2)CC1 [Mizolastine] | < 0%
28 | COc1cc2nccc(Oc3ccc(NC(=O)Nc4cc(C)on4)c(Cl)c3)c2cc1OC [Tivozanib] | < 0%
29 | COc1cc2nc(N3CCN(C(=O)c4ccco4)CC3)nc(N)c2cc1OC [Prazosin hydrochloride] | < 0%
30 | CC(C)c1ccc(Cn2ccc3c4c(N)nc(NC5CC5)nc4ccc32)cc1 | 80.9%
31 | COc1nccc(-c2c(-c3ccc(F)cc3)ncn2C2CCNCC2)n1 | < 0%
32 | COc1nc(C)cnc1NS(=O)(=O)c1cccnc1-c1ccc(-c2nnco2)cc1 [Zibotentan] | < 0%
33 | CCOC(=O)Nc1ccc(NCc2ccc(F)cc2)nc1N [Flupirtine maleate] | < 0%
34 | O=C(NCC1CCCCN1)c1cc(OCC(F)(F)F)ccc1OCC(F)(F)F (stereo not given) [Flecainide] | < 0%
35 | CC(C(=O)O)c1cccc(C(=O)c2ccccc2)c1 (stereo not given) [Ketoprofen] | < 0%
36 | CCc1cnn2c(NCc3ccc[n+]([O-])c3)cc(N3CCCC[C@H]3CCO)nc12 | 70.4%
37 | O=C(/C=C/c1cccnc1)NCCCCC1CCN(C(=O)c2ccccc2)CC1 [FK866 (APO866, Daporinad)] | 83.5%
38 | CC(C)NCC(O)COc1ccc(CCOCC2CC2)cc1 (stereo not given) [Betaxolol] | < 0%
39 | Cc1cc(C(C)Nc2ccccc2)c2nc(N3CCOCC3)cc(=O)n2c1 (stereo not given) | < 0%
40 | COc1cc([C@@H]2c3cc4c(cc3[C@@H](O[C@@H]3O[C@@H]5CO[C@@H](C)O[C@H]5[C@H](O)[C@H]3O)[C@H]3COC(=O)[C@H]23)OCO4)cc(OC)c1O [Etoposide] | 19.8%
41 | NS(=O)(=O)OC[C@@H]1C[C@@H](n2ccc3c(N[C@H]4CCc5ccccc54)ncnc32)C[C@@H]1O | 76.8%
42 | OC(CCN1CCCCC1)(c1ccccc1)C1CC2C=CC1C2 (stereo not given) [Biperiden] | < 0%
43 | OC[C@H]1O[C@@H](n2cnc3c2N=CNC[C@H]3O)C[C@@H]1O [Pentostatin] | < 0%
44 | CC1(C)O[C@@H]2C[C@H]3[C@@H]4C[C@H](F)C5=CC(=O)C=C[C@]5(C)[C@H]4[C@@H](O)C[C@]3(C)[C@]2(C(=O)CO)O1 [Flunisolide] | < 0%
45 | COc1cc2ncnc(Nc3ccc(F)c(Cl)c3)c2cc1NC(=O)/C=C/CN1CCCCC1 [Dacomitinib] | 3.72%

Row | SMILES | reduction in cell viability
46 | COc1ccc(F)c(F)c1C(=O)c1cnc(NC2CCN(S(C)(=O)=O)CC2)nc1N | 5.79%
47 | CC(C)C[C@@H](N)[C@H](O)C(=O)N[C@H](C(=O)N[C@H](C(=O)N[C@@H](CC(=O)O)C(=O)O)C(C)C)C(C)C [Amastatin] | < 0%
48 | Nc1cc(C(F)(F)F)c(-c2cc(N3CCOCC3)nc(N3CCOCC3)n2)cn1 [BKM120 (NVP-BKM120, Buparlisib)] | 11.8%
49 | C[C@H](CCC(=O)O)[C@H]1CC[C@H]2[C@@H]3[C@H](O)C[C@@H]4C[C@H](O)CC[C@]4(C)[C@H]3CC[C@]12C [Chenodeoxycholic acid] | < 0%
50 | CN(C)[C@@H]1C(O)=C(C(N)=O)C(=O)[C@@]2(O)C(O)=C3C(=O)c4c(O)cccc4[C@@](C)(O)[C@H]3C[C@@H]12 [Tetracycline hydrochloride] | < 0%
51 | Cc1cc(Nc2nc(N[C@@H](C)c3ccc(F)cc3)c(C#N)cc2F)n[nH]1 | 21.8%
52 | CCN(CC)CCOc1ccc(Nc2ncc3cc(-c4c(Cl)cccc4Cl)c(=O)n(C)c3n2)cc1 | 70.9%
53 | Cc1cc(C(C)(C)C)cc(C)c1CC1=NCCN1 [Xylometazoline hydrochloride] | < 0%
54 | CCn1cc(C(=O)O)c(=O)c2cc(F)c(N3CCNC(C)C3)c(F)c21 (stereo not given) [Lomefloxacin hydrochloride] | < 0%
55 | C[C@]12CCC3=C4CCC(=O)C=C4CC[C@H]3[C@@H]1CC[C@@]2(O)CC#N [Dienogest] | < 0%
56 | CN(C)CCCN1c2ccccc2CCc2ccc(Cl)cc21 [Clomipramine] | < 0%
57 | O=C(NCCCCN1CCOCC1)c1cc2ccccc2o1 | < 0%
58 | Cc1ccc(S(=O)(=O)Nc2cc(Cl)ccc2C(=O)Nc2nc(-c3ccccc3)cs2)cc1 | < 0%
59 | C[C@@H](Oc1cc(-c2cnn(C3CCNCC3)c2)cnc1N)c1c(Cl)ccc(F)c1Cl | < 0%
60 | C/C=C(/C)C(=O)O[C@H]1C(C)=C[C@]23C(=O)[C@@H](C=C(CO)[C@@H](O)[C@]12O)[C@H]1[C@@H](C[C@H]3C)C1(C)C [Ingenol mebutate] | 28.4%
61 | CN(C)C(=O)C(CCN1CCC(O)(c2ccc(Cl)cc2)CC1)(c1ccccc1)c1ccccc1 [Loperamide] | < 0%
62 | O=C1c2cccc(O)c2C(=O)c2c(O)cc(CO)cc21 [Aloe-emodin] | < 0%
63 | CC1=C(/C=C/C(C)=C/C=C/C(C)=C/C(=O)O)C(C)(C)CCC1 [Tretinoin] | < 0%
64 | CC(C)[C@H](CO)Nc1nc(Nc2cccc(Cl)c2)c2ncn(C(C)C)c2n1 [Purvalanol A] | < 0%
65 | O=S(=O)(O)c1ccc2cc(N=Nc3cc(S(=O)(=O)O)c4cccnc4c3O)ccc2c1 | < 0%

Source: the supplement of paper PMC9015667
